{"source": "patent US20160199364A1", "about": "“SEIZURE TREATMENT COMPOSITIONS AND METHODS” (Creighton University, priority 2015, published 2016)", "tested_on": "spontaneous recurrent seizures in epileptic Kv1.1 knockout (KO) mice", "assay": "Spontaneous recurrent seizures by 24 hr video-EEG (seizure incidence, seizure burden index)", "format": "in vivo, mouse", "settings": "pioglitazone 10 mg/kg/day i.p., five-day treatment, vs two-day vehicle baseline; Kv1.1KO mice", "experimental": "Dietary and pharmacological treatments. […] For dietary experiments involving Kv1.1WT and Kv1.1KO mice, drinking water contained either 0.0323% DMSO vehicle or GW9662 ([…]) to obtain an average dosage of 1.062±0.038 mg/kg/day (n=18). There was no difference in the average daily water consumption or resulting GW9662 dosage between experimental groups (see FIG. 2H). […] Three hours after the last pioglitazone injection, mice were euthanized and brains processed for western blot, electrophysiology, or mitochondria experiments.\nIntracranial electroencephalography electrode implantation and seizure analysis. On P27, mice underwent surgical implantation of electrodes. […] Incidence and severity of each seizure was scored for the first 15 minutes of each hour during the time period of highest seizure occurrence for Kv1.1KO mice (00:00-08:00). Seizure severity was scored using a modified Racine scale: 0—normal; 1—myoclonic jerk or “pop;” 2—side-to-side head movement; 3—forelimb/hindlimb clonus, tail extension, a single rearing event; 4—continuous rearing and falling; 5—severe tonic-clonic seizures. To weigh the incidence and severity of seizures, seizure burden index (SBI) scores were calculated using the equation: SBI=[Σ(σiγi)]/ε, where σ indicates the severity; i indicates each stage of seizure (1-5); γ is the incidence; and ε indicates the total number of epochs scored.", "note": "For at least one compound, name, drawing or mass did not settle the structure."}
{"smiles": "CCc1ccc(CCOc2ccc(CC3SC(=O)NC3=O)cc2)nc1", "note": "(stereo not shown) [pioglitazone]", "values": [{"measurement": "seizure incidence burden", "result": "decreased"}]}
